Source: article PMC11219001
No constants are given. Whether binding was seen depends on the method and setting. Binding seen in cells or lysates may run through a third protein. These calls come from enrichment with a bait or labelling near it, and not all partners need be listed. For part of these data: No binding means not detected with the bait. Tags and fused reporters may be left off the sequences shown.

Protein sequences, listed by entry. Tags and fused reporters are not part of them.
UniProt A0A125YUT6: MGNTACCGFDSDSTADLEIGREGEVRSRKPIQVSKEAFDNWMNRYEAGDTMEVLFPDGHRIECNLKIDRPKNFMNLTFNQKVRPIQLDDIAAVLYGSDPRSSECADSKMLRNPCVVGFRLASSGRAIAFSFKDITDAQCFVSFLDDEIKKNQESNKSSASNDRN

Columns and labels:
[1] = molecular target: T1, TGME49_306650-3×HA (Toxoplasma gondii (endogenous in PRU strain)) (UniProt S8G6Z4); test: affinity purification with mass spectrometry; IP of the endogenously 3×HA-tagged bait from T. gondii PRU lysate made in 1% NP-40, 150 mM NaCl, 50 mM Tris pH 8.0, 5 mM EDTA, 1 hour at 4°C; SureBeads Protein G magnetic beads; 2 replicates; PRU WT as negative control; SAINTexpress
T1 sequence: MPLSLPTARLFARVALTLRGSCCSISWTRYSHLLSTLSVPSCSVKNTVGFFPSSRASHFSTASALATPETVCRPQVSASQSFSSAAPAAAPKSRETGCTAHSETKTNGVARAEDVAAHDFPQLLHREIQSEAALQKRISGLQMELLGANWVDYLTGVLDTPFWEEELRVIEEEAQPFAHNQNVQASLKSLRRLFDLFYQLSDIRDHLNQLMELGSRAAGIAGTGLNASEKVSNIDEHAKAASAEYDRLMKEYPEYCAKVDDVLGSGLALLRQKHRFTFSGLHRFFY

[2] = molecular target: T2, IMC19-3×HA (Toxoplasma gondii (endogenous in PRU strain)); test: affinity purification with mass spectrometry; IP of the endogenously 3×HA-tagged bait from T. gondii PRU lysate made by sonication (10mM Hepes-pH 7.9, 1.5mM MgCl2, 10mM KCl, 1mM DTT); SureBeads Protein G magnetic beads; 2 replicates; PRU WT as negative control; SAINTexpress, high confident hits FDR ≤ 0.01
T2 sequence: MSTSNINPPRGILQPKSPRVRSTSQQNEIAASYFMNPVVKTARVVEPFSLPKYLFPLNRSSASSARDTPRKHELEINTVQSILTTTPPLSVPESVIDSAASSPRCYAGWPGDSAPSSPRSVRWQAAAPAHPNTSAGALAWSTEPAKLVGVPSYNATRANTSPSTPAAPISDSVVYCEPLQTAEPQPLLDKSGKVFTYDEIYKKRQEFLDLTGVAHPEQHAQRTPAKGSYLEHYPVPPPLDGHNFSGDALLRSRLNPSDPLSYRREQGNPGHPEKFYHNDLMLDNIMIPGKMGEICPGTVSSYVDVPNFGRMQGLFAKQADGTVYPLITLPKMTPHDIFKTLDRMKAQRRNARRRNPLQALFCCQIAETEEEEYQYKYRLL

Substance	binding [1]	binding [2]
SDHA	no binding	
ISP3 (from UniProt A0A125YUT6 1-164)		binds
succinate dehydrogenase subunit B	no binding	
